The values that follow come from PMC8929021.

The target of one assay is T1, BUD13 fused to BirA* (UniProt Q9BRD0).
T1 sequence: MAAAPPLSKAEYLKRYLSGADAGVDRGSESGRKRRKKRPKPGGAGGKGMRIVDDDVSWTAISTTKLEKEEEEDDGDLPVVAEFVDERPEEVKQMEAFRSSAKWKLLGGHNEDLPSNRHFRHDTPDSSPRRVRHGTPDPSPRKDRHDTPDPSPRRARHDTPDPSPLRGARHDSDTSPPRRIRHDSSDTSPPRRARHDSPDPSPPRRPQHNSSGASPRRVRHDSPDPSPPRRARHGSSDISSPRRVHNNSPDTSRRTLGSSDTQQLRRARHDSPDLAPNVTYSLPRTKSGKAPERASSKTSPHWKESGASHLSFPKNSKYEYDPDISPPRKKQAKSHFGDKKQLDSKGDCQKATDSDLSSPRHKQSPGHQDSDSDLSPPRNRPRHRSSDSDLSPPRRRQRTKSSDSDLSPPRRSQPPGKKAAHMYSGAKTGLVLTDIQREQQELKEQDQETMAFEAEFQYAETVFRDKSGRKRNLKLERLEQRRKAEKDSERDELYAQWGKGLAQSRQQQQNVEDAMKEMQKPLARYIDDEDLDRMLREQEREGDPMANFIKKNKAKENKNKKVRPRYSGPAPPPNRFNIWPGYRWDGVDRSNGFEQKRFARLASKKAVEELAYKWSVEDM
In words: proximity labelling; BioID-MS: BirA* fusion bait in stable Flp-In T-Rex 293 or HeLa cells, tetracycline 1 μg/mL and biotin 75 μM for 24 h; lysis in modified RIPA buffer, streptavidin-agarose beads 4 °C 3 h, on-bead trypsin digestion, LC-MS/MS; GFP-NLS as control, SAINTexpress FDR threshold 0.1; for KIN also in HeLa cells synchronised by double thymidine block (S, G2/M, G1) and 2 or 24 h after 10 Gy gamma irradiation.

In assay [1] the target is T2, BUD13 fused to BirA*, Q9BRD0.
T2 chain: T1 sequence
The assay is described as above. The following applies: remark: other sources report otherwise.

No constants are given. Whether binding was seen depends on the method and setting. In cells and extracts the contact can be indirect. Here binding means that the protein was enriched with, or labelled near, the bait; the list need not be complete. For some assays here: A no says only that the protein was not detected with the bait. Where a sequence is shown, tags or fusion partners need not be part of it.

B1: CWC22 (protein, UniProt Q9HCG8 1-908)
chain: MKSSVAQIKPSSGHDRRENLNSYQRNSSPEDRYEEQERSPRDRDYFDYSRSDYEHSRRGRSYDSSMESRNRDREKRRERERDTDRKRSRKSPSPGRRNPETSVTQSSSAQDEPATKKKKDELDPLLTRTGGAYIPPAKLRMMQEQITDKNSLAYQRMSWEALKKSINGLINKVNISNISIIIQELLQENIVRGRGLLSRSVLQAQSASPIFTHVYAALVAIINSKFPQIGELILKRLILNFRKGYRRNDKQLCLTASKFVAHLINQNVAHEVLCLEMLTLLLERPTDDSVEVAIGFLKECGLKLTQVSPRGINAIFERLRNILHESEIDKRVQYMIEVMFAVRKDGFKDHPIILEGLDLVEEDDQFTHMLPLEDDYNPEDVLNVFKMDPNFMENEEKYKAIKKEILDEGDTDSNTDQDAGSSEEDEEEEEEEGEEDEEGQKVTIHDKTEINLVSFRRTIYLAIQSSLDFEECAHKLLKMEFPESQTKELCNMILDCCAQQRTYEKFFGLLAGRFCMLKKEYMESFEGIFKEQYDTIHRLETNKLRNVAKMFAHLLYTDSLPWSVLECIKLSEETTTSSSRIFVKIFFQELCEYMGLPKLNARLKDETLQPFFEGLLPRDNPRNTRFAINFFTSIGLGGLTDELREHLKNTPKVIVAQKPDVEQNKSSPSSSSSASSSSESDSSDSDSDSSDSSSESSSEESDSSSISSHSSASANDVRKKGHGKTRSKEVDKLIRNQQTNDRKQKERRQEHGHQETRTERERRSEKHRDQNSSGSNWRDPITKYTSDKDVPSERNNYSRVANDRDQEMHIDLENKHGDPKKKRGERRNSFSENEKHTHRIKDSENFRRKDRSKSKEMNRKHSGSRSDEDRYQNGAERRWEKSSRYSEQSRESKKNQDRRREKSPAKQK
For the molecule B1, the binding result with BUD13 fused to BirA* was “binds”.

B2: SNIP1/Pml1, Q8TAD8 1-396 (protein)
chain: MKAVKSERERGSRRRHRDGDVVLPAGVVVKQERLSPEVAPPAHRRPDHSGGSPSPPTSEPARSGHRGNRARGVSRSPPKKKNKASGRRSKSPRSKRNRSPHHSTVKVKQEREDHPRRGREDRQHREPSEQEHRRARNSDRDRHRGHSHQRRTSNERPGSGQGQGRDRDTQNLQAQEEEREFYNARRREHRQRNDVGGGGSESQELVPRPGGNNKEKEVPAKEKPSFELSGALLEDTNTFRGVVIKYSEPPEARIPKKRWRLYPFKNDEVLPVMYIHRQSAYLLGRHRRIADIPIDHPSCSKQHAVFQYRLVEYTRADGTVGRRVKPYIIDLGSGNGTFLNNKRIEPQRYYELKEKDVLKFGFSSREYVLLHESSDTSEIDRKDDEDEEEEEEVSDS
On to B2, for which the binding entry in assay [1] was “no binding”.

B3: DHX16 (protein, UniProt O60231 1-1041)
chain: MATPAGLERWVQDELHSVLGLSERHVAQFLIGTAQRCTSAEEFVQRLRDTDTLDLSGPARDFALRLWNKVPRKAVVEKPARAAEREARALLEKNRSYRLLEDSEESSEETVSRAGSSLQKKRKKRKHLRKKREEEEEEEASEKGKKKTGGSKQQTEKPESEDEWERTERERLQDLEERDAFAERVRQRDKDRTRNVLERSDKKAYEEAQKRLKMAEEDRKAMVPELRKKSRREYLAKREREKLEDLEAELADEEFLFGDVELSRHERQELKYKRRVRDLAREYRAAGEQEKLEATNRYHMPKETRGQPARAVDLVEEESGAPGEEQRRWEEARLGAASLKFGARDAASQEPKYQLVLEEEETIEFVRATQLQGDEEPSAPPTSTQAQQKESIQAVRRSLPVFPFREELLAAIANHQVLIIEGETGSGKTTQIPQYLFEEGYTNKGMKIACTQPRRVAAMSVAARVAREMGVKLGNEVGYSIRFEDCTSERTVLRYMTDGMLLREFLSEPDLASYSVVMVDEAHERTLHTDILFGLIKDVARFRPELKVLVASATMDTARFSTFFDDAPVFRIPGRRFPVDIFYTKAPEADYLEACVVSVLQIHVTQPPGDILVFLTGQEEIEAACEMLQDRCRRLGSKIRELLVLPIYANLPSDMQARIFQPTPPGARKVVVATNIAETSLTIEGIIYVLDPGFCKQKSYNPRTGMESLTVTPCSKASANQRAGRAGRVAAGKCFRLYTAWAYQHELEETTVPEIQRTSLGNVVLLLKSLGIHDLMHFDFLDPPPYETLLLALEQLYALGALNHLGELTTSGRKMAELPVDPMLSKMILASEKYSCSEEILTVAAMLSVNNSIFYRPKDKVVHADNARVNFFLPGGDHLVLLNVYTQWAESGYSSQWCYENFVQFRSMRRARDVREQLEGLLERVEVGLSSCQGDYIRVRKAITAGYFYHTARLTRSGYRTVKQQQTVFIHPNSSLFEQQPRWLLYHELVLTTKEFMRQVLEIESSWLLEVAPHYYKAKELEDPHAKKMPKKIGKTREELG
B3: the binding entry with BUD13 fused to BirA* is given as “binds”.

B4: GPKOW (protein, UniProt Q92917 1-476)
chain: MADSKEGVLPLTAASTAPISFGFTRTSARRRLADSGDGAGPSPEEKDFLKTVEGRELQSVKPQEAPKELVIPLIQNGHRRQPPARPPGPSTDTGALADGVVSQAVKELIAESKKSLEERENAGVDPTLAIPMIQKGCTPSGEGADSEPRAETVPEEANYEAVPVEAYGLAMLRGMGWKPGEGIGRTFNQVVKPRVNSLRPKGLGLGANLTEAQALTPTGPSRMPRPDEEQEKDKEDQPQGLVPGGAVVVLSGPHRGLYGKVEGLDPDNVRAMVRLAVGSRVVTVSEYYLRPVSQQEFDKNTLDLRQQNGTASSRKTLWNQELYIQQDNSERKRKHLPDRQDGPAAKSEKAAPRSQHWLHRDLRVRFVDNMYKGGQYYNTKMIIEDVLSPDTCVCRTDEGRVLEGLREDMLETLVPKAEGDRVMVVLGPQTGRVGHLLSRDRARSRALVQLPRENQVVELHYDAICQYMGPSDTDDD
As to B4, the binding result in the assay with BUD13 fused to BirA* was “binds”.

B5: WDR3 (protein, UniProt Q9UNX4 1-943)
chain: MGLTKQYLRYVASAVFGVIGSQKGNIVFVTLRGEKGRYVAVPACEHVFIWDLRKGEKILILQGLKQEVTCLCPSPDGLHLAVGYEDGSIRIFSLLSGEGNVTFNGHKAAITTLKYDQLGGRLASGSKDTDIIVWDVINESGLYRLKGHKDAITQALFLREKNLLVTSGKDTMVKWWDLDTQHCFKTMVGHRTEVWGLVLLSEEKRLITGASDSELRVWDIAYLQEIEDPEEPDPKKIKGSSPGIQDTLEAEDGAFETDEAPEDRILSCRKAGSIMREGRDRVVNLAVDKTGRILACHGTDSVLELFCILSKKEIQKKMDKKMKKARKKAKLHSSKGEEEDPEVNVEMSLQDEIQRVTNIKTSAKIKSFDLIHSPHGELKAVFLLQNNLVELYSLNPSLPTPQPVRTSRITIGGHRSDVRTLSFSSDNIAVLSAAADSIKIWNRSTLQCIRTMTCEYALCSFFVPGDRQVVIGTKTGKLQLYDLASGNLLETIDAHDGALWSMSLSPDQRGFVTGGADKSVKFWDFELVKDENSTQKRLSVKQTRTLQLDEDVLCVSYSPNQKLLAVSLLDCTVKIFYVDTLKFFLSLYGHKLPVICMDISHDGALIATGSADRNVKIWGLDFGDCHKSLFAHDDSVMYLQFVPKSHLFFTAGKDHKIKQWDADKFEHIQTLEGHHQEIWCLAVSPSGDYVVSSSHDKSLRLWERTREPLILEEEREMEREAEYEESVAKEDQPAVPGETQGDSYFTGKKTIETVKAAERIMEAIELYREETAKMKEHKAICKAAGKEVPLPSNPILMAYGSISPSAYVLEIFKGIKSSELEESLLVLPFSYVPDILKLFNEFIQLGSDVELICRCLFFLLRIHFGQITSNQMLVPVIEKLRETTISKVSQVRDVIGFNMAGLDYLKRECEAKSEVMFFADATSHLEEKKRKRKKREKLILTLT
For B5, the binding entry with BUD13 fused to BirA* is reported as “binds”.
